Laboratory results reported in article doi:10.1101/526020.
No constants are given. Whether binding was seen depends on the method and setting. Binding seen in cells or lysates may run through a third protein. Some results given as binding are weak or reduced against the parent protein; the word gives no strength.

Amino acid sequences for entries named in this document (tags omitted). A change or cut given only in a name is not applied to a line headed by its entry.
UniProt P03915: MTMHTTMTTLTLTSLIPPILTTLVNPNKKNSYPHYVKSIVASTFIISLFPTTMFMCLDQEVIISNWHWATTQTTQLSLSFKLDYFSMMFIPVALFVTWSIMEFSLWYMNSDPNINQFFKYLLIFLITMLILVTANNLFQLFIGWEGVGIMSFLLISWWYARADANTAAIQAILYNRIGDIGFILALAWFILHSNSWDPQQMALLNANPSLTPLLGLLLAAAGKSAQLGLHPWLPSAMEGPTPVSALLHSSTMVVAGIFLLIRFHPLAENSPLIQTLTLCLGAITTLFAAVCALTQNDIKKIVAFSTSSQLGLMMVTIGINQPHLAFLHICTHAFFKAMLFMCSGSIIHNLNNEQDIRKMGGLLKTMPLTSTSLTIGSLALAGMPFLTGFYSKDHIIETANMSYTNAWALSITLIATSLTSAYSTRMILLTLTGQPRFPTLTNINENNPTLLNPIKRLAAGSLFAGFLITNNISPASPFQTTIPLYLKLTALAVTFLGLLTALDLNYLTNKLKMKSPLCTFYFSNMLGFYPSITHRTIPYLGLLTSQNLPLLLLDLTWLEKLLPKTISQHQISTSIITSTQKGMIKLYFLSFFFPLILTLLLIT
UniProt P03891: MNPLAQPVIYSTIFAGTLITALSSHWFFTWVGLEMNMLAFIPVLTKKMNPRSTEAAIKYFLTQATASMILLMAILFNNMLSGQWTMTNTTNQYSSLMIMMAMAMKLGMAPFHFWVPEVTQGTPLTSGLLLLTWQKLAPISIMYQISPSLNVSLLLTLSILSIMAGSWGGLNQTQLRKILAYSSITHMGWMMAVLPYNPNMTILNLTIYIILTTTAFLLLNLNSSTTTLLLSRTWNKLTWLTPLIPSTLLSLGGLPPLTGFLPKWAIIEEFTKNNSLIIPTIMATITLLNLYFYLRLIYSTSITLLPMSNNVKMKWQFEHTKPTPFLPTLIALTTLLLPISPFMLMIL

Molecular target: ND5-F1,2 construct (human complex I subunit ND5) (human) (UniProt P03915)
Experiment: split reporter

With “ND2-I57M in the F3 mDHFR fragment-containing construct (from UniProt P03891 1-347)” the binding was “binds”.

For “ND2-N150D in the F3 mDHFR fragment-containing construct (from UniProt P03891 1-347)”, the binding was “binds”.
